Data on 38 molecules can be found in PubChem BioAssay AID2685 (National Center for Advancing Translational Sciences (NCATS), 2010).

The test is described as follows: qHTS Assay for Lipid Storage Modulators in Drosophila S3 Cells.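 On cell number change: cells counted by Cell Tracker Red CMTPX staining in the red channel.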 The settings on record: BODIPY lipid droplet fluorescence, 18-24 h; for cell number change: measured here: cell count max response, cells fed with added oleic acid. An outline of the steps: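 Drosophila S3 cells got compounds at several concentrations plus oleic acid (400 uM solution). Laser-scanning cytometry with 488 nm excitation read lipid droplets at 500-530 nm and cells at 575-640 nm. Percent activity was relative to 20 uM Triacsin C.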
(In general: qHTS replaces the single test concentration by a dilution series.)

Where [1] appears, read: measured here: cell number channel AC50, cells fed with added oleic acid.
Where [2] appears, read: measured here: lipid fluorescence (Fed channel) AC50, cells fed with added oleic acid.

The list shows a part of the results. The main result of the screen is listed elsewhere. These columns were measured beside it and carry no call. The list favours compounds with an active or inconclusive main result. Words in brackets tell the shape of the fitted curve; partial curves, single points and poor fits give uncertain potencies.

For orientation: AC50 means the concentration at which the activity in the assay is half-maximal. The low end stands for activity at low concentration, the high end for activity only at high concentration. For `Cc1ccc2[nH]c(=O)c(-c3nc4cc(C)ccn4c3NCc3ccco3)cc2c1`, the cell number change was found to be 55.9%. Also, the AC50 under setting [1] is 29.1 µM [rising, single point]. In addition, the AC50 under setting [2] is 0.116 µM [rising, single point].

With `Cc1ccc(-n2c3c(cc(C(=O)O)c2=O)C(=O)CC(C)(C)C3)cc1`, the cell number change was -206%. Under setting [1], the AC50 was 20.6 µM [falling, partial curve]. In addition, the AC50 under setting [2] was 23.1 µM [falling, partial curve].

Turning to `Nc1cc(-c2ccco2)no1`, the cell number change was found to be 2.01%.

As to `O=C(CCN1C(=O)c2cccnc2C1=O)NC1CCCCCC1`, the cell number change is -53.3%. The AC50 under setting [1] was 29.1 µM [falling, single point]. Moreover, the AC50 under setting [2] was 29.1 µM [falling, single point].

For the molecule `O=C(CN(Cc1ccco1)C(=O)c1ccc(Cl)cc1)Nc1ccc(Cl)c(Cl)c1`, the cell number change was determined as 50%. Also, the AC50 under setting [1] was 20.6 µM [rising, partial curve].

Turning to `CC(C)c1onc(C(=O)Nc2cccc(Cl)c2)c1[N+](=O)[O-]`, the cell number change turned out to be 23.5%. Besides, the AC50 under setting [2] was 29.1 µM [rising, single point].

Take `COC(=O)c1c(NC(=O)c2ccco2)sc(C)c1C`: the cell number change was -3.13%. The AC50 under setting [2] is 0.731 µM [rising, partial curve, poor fit].

`Cc1nc(CC(=O)NNS(=O)(=O)c2ccc3ccccc3c2)cs1`: the cell number change was -24.8%. For the same molecule, the AC50 under setting [2] was 0.651 µM [falling, full curve, poor fit].

Regarding `CCCC(c1nnnn1C1CCCC1)N1CCN(C(=O)c2ccco2)CC1` (configuration not stated), the cell number change was found to be 14.4%. For the same molecule, the concentration at half-maximal activity (AC50) under setting [1] was 0.259 µM [rising, full curve, poor fit]. Also, under setting [2], the AC50 was 0.326 µM [rising, partial curve].

On to `COc1ccc(S(=O)(=O)N2CCC(C(=O)NCCCn3ccnc3)CC2)cc1C`, for which the cell number change was 16.7%. The AC50 under setting [2] is 0.103 µM [rising, single point].

`Cc1c(Cl)cccc1NC(=O)CC1Oc2ccccc2NC1=O` (configuration not stated): the cell number change amounted to 13.9%. Besides, the AC50 under setting [2] was 0.0082 µM [rising, full curve, poor fit].

On to `O=C1CCc2cc(S(=O)(=O)NCCC(=O)NC3CCN(Cc4ccccc4)CC3)ccc2N1`, for which the cell number change is -27.4%. The AC50 under setting [2] is 32.6 µM [falling, single point].

Take `O=[N+]([O-])c1ccccc1CNCCCCO`: the cell number change is -14.5%. For the same molecule, the AC50 under setting [2] was 16.4 µM [rising, partial curve, poor fit].

As for `CCCCOC(=O)Nc1nc(CC(=O)OCC)cs1`, the cell number change was -1.28%.

Take `COC(=O)CC1C(=O)NCCN1C(=O)CSc1nc2ccccc2o1` (configuration not stated): the cell number change was -4.87%.

As to `CCN(CC)c1ccc(NS(=O)(=O)c2ccc3c(c2)oc(=O)n3C)c(C)c1`, the concentration at half-maximal activity (AC50) is, setting by setting: under setting [1], 0.13 µM [rising, single point]; under setting [2], 0.13 µM [rising, single point].

In the case of `Cc1ccc(NC(=S)N2CCN(S(=O)(=O)c3ccccc3)CC2)cc1`, the cell number change was 41.9%. Under setting [1], the AC50 was 0.731 µM [rising, full curve]. The AC50 under setting [2] is 29.1 µM [rising, single point].

With `CS(=O)(=O)N(CC(=O)N1CCCC1)Cc1ccc(F)cc1`, the cell number change was -22.5%.

As for `COc1ccc(NC(=O)CSc2nc3ccccc3c(=O)n2CCC(=O)N2CCCCC2)cc1`, the cell number change was -6.9%. For the same molecule, under setting [2], the half-maximal activity concentration (AC50) is 29.1 µM [falling, single point].

In the case of `S=c1[nH]c(-c2cccs2)cn1-c1ccccc1`, the cell number change was found to be 21%. Also, the AC50 under setting [2] was 29.1 µM [rising, single point].

Regarding `O=S(=O)(Nc1ccc2c3c(cccc13)CC2)c1ccc(F)cc1`, the cell number change is -27.1%. For the same molecule, the AC50 under setting [2] is 9.2 µM [falling, partial curve, poor fit].

Turning to `CN(CC1CCN(CCc2cccc(C(F)(F)F)c2)CC1)C(=O)c1ccccc1`, the cell number change was found to be 4.71%.

As to `O=C(O)c1ccccc1C(=O)OCCc1cc2ccccc2c(=O)o1`, the cell number change is -6.67%. Besides, under setting [2], the AC50 is 16.4 µM [rising, single point].

Take `COc1ccc(-c2nc(C3CCCCC3)no2)cc1OC`: the cell number change amounted to 29.3%. Further, the AC50 under setting [2] was 29.1 µM [rising, single point].

Take `COc1ccc2c(CC(=O)OCC(=O)Nc3cc(C)c(C)cc3[N+](=O)[O-])coc2c1`: the cell number change worked out at 27.8%. Moreover, the AC50 under setting [2] was 8.2 µM [rising, partial curve].

In the case of `CC1(C)CC(=O)C/C(=N/NC(=O)COc2ccc(Cl)cc2Cl)C1`, the cell number change worked out at 27.5%. Also, under setting [2], the AC50 was 8.2 µM [rising, partial curve, poor fit].

For the molecule `Cc1ccc(S(=O)(=O)N2CCC(C(=O)Nc3nnc(COc4ccccc4)s3)CC2)cc1`, the cell number change was 7.37%.

`COc1ccccc1/C=N/NC(=S)Nc1cccnc1`: the cell number change was 21.9%. Further, the AC50 under setting [2] is 4.61 µM [rising, full curve].

With `CCOC(=O)c1ccc(NC(=O)NNC(=O)CCc2ccc(OC)cc2)cc1`, the cell number change was -2.59%. Further, under setting [1], the AC50 was 0.461 µM [rising, single point]. Also, under setting [2], the AC50 is 3.66 µM [rising, full curve, poor fit].

For the molecule `O=C(COc1ccc(/C=N/NS(=O)(=O)c2ccccc2)cc1)NCc1ccccc1`, the AC50 under setting [2] was 29.1 µM [rising, single point].

Consider `O=C(NCc1cc(C(F)(F)F)cc(C(F)(F)F)c1)C1CC(c2cccc(F)c2)=NO1` (configuration not stated), for which the cell number change is 4.17%. In addition, under setting [2], the AC50 was 0.0092 µM [rising, full curve, poor fit].

On to `Cc1sc(NC(=O)CCC(=O)O)c(C(N)=O)c1-c1ccccc1`, for which the cell number change came out at 58%. The AC50 under setting [1] is 29.1 µM [rising, single point]. Besides, the AC50 under setting [2] is 1.3 µM [falling, single point].

In the case of `O=C(O)c1ccc(CN2CCCCC2)o1`, the cell number change came to 0.26%. In addition, the AC50 under setting [2] is 14.6 µM [falling, partial curve].

For the molecule `CC1(NC(=O)c2cccc(S(=O)(=O)N3CCN(c4ccccc4)CC3)c2)CCS(=O)(=O)C1` (configuration not stated), the cell number change amounted to 21.5%. Also, the AC50 under setting [2] is 29.1 µM [rising, single point].

For `Cn1c(=O)cc(SCC(=O)N2CCCC2)c2ccccc21`, the cell number change was 26.5%. Moreover, the AC50 under setting [2] was 6.51 µM [rising, single point].

For the molecule `CC(C)c1ccc(C(N)=S)cc1`, the cell number change worked out at 47.5%.

As to `c1ccc(CSc2nnc(Cc3ccccn3)o2)cc1`, the cell number change is 35.1%. Further, the AC50 under setting [1] was 14.6 µM [rising, single point]. In addition, the AC50 under setting [2] was 13 µM [rising, partial curve].

As for `COc1ccc(N2CCN(C(=O)c3ccc(CSc4ccccc4)cc3)CC2)cc1`, the cell number change was -44.1%. Besides, under setting [1], the AC50 is 29.1 µM [falling, single point]. Besides, the AC50 under setting [2] was 0.0651 µM [rising, full curve, poor fit].
